# Laboratory results as given in the supplement of paper PMC12067093, “Discovery and optimisation of a covalent ligand for TRIM25 and its application to targeted protein ubiquitination” (Chemical Science, 2025).
# The chains behind the UniProt entries cited, without tags or fusion partners. Where a name states a change or a piece, a line headed by the entry shows the natural chain unless it says otherwise.
# UniProt O95568: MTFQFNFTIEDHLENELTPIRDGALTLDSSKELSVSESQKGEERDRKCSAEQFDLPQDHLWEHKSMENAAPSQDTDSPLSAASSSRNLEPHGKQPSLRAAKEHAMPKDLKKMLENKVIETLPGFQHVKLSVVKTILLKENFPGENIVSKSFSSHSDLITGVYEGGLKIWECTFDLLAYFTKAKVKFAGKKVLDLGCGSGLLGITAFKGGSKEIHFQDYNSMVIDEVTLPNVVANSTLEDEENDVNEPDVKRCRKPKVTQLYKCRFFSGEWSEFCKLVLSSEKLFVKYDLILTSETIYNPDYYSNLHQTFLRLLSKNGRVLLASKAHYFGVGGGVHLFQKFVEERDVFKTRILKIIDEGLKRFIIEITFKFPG
# UniProt Q96RQ3: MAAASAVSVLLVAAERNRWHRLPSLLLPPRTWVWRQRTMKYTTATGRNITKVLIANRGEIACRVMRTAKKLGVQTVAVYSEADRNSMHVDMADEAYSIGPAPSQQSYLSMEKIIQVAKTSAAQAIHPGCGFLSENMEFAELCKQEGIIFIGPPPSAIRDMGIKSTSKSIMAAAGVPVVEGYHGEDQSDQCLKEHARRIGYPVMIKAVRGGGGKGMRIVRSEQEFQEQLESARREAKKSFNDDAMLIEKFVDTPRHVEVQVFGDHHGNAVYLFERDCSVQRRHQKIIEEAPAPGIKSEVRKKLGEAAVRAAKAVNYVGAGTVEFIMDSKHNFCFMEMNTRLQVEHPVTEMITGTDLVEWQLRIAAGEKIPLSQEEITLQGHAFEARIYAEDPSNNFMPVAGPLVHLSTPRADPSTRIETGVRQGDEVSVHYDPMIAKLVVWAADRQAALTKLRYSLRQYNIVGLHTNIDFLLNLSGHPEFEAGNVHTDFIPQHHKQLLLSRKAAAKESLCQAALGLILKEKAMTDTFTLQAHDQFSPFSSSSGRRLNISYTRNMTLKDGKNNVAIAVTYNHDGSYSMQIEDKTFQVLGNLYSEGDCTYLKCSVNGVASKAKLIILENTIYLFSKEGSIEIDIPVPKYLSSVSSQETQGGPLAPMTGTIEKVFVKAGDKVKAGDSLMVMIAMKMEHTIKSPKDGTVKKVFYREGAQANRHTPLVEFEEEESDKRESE
# UniProt O15553: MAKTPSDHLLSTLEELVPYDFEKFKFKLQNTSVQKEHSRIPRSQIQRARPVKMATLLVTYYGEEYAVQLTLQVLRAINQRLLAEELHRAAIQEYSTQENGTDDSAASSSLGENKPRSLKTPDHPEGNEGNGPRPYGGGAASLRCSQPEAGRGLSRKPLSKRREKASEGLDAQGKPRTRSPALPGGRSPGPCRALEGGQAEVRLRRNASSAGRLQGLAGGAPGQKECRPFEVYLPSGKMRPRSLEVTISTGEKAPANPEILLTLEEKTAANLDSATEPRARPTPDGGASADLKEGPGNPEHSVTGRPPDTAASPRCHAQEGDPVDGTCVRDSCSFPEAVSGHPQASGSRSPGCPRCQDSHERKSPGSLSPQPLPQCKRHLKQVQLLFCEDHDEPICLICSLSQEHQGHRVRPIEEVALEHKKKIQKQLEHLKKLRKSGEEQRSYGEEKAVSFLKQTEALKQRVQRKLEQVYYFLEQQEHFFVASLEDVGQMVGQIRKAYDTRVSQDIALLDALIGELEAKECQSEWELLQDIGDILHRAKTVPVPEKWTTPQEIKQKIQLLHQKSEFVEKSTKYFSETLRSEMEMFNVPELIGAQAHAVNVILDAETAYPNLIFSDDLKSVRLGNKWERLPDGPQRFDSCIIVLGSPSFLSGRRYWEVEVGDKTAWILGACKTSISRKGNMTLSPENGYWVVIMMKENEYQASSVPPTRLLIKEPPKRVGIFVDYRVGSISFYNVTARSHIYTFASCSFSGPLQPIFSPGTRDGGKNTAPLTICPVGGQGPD
# UniProt Q15648, whole entry, looked up: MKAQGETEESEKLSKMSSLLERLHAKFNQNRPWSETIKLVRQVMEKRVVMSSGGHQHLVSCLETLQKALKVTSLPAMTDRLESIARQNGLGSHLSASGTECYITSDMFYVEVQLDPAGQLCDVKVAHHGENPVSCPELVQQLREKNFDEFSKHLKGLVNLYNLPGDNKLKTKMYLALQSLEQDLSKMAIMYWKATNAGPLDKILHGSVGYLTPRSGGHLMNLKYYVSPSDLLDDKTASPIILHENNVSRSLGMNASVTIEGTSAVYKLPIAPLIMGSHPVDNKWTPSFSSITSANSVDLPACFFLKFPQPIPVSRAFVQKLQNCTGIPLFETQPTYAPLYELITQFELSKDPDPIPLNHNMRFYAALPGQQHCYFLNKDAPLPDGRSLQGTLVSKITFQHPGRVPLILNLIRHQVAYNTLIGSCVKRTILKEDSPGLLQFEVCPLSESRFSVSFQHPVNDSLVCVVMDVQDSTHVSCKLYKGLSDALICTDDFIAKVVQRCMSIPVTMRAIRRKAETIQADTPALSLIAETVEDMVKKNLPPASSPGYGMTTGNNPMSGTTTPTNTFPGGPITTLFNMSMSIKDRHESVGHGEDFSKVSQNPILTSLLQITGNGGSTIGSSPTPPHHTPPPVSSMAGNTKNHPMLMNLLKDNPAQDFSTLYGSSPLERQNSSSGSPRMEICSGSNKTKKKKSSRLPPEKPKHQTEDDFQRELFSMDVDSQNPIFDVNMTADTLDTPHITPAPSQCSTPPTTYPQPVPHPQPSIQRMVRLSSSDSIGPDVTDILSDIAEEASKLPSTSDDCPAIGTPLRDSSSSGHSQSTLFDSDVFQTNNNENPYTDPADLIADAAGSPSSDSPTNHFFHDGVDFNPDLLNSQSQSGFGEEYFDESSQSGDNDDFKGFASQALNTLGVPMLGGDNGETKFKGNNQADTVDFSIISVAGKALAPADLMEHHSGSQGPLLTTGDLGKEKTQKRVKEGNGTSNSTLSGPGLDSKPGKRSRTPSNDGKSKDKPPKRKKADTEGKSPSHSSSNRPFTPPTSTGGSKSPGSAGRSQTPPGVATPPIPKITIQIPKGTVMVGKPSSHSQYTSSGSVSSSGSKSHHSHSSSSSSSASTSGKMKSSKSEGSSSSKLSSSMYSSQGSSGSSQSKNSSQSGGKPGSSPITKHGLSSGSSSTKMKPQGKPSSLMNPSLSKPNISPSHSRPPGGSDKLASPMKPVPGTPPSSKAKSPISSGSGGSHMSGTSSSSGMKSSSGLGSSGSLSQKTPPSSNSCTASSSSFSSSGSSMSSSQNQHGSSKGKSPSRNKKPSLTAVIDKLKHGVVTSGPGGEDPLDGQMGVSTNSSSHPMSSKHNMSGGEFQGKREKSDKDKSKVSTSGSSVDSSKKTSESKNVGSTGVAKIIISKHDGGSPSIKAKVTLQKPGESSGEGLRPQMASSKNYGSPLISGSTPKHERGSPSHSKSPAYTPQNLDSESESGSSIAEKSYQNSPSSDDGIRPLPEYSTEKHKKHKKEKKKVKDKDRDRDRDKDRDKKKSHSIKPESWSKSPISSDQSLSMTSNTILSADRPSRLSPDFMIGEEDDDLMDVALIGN
# UniProt O95140: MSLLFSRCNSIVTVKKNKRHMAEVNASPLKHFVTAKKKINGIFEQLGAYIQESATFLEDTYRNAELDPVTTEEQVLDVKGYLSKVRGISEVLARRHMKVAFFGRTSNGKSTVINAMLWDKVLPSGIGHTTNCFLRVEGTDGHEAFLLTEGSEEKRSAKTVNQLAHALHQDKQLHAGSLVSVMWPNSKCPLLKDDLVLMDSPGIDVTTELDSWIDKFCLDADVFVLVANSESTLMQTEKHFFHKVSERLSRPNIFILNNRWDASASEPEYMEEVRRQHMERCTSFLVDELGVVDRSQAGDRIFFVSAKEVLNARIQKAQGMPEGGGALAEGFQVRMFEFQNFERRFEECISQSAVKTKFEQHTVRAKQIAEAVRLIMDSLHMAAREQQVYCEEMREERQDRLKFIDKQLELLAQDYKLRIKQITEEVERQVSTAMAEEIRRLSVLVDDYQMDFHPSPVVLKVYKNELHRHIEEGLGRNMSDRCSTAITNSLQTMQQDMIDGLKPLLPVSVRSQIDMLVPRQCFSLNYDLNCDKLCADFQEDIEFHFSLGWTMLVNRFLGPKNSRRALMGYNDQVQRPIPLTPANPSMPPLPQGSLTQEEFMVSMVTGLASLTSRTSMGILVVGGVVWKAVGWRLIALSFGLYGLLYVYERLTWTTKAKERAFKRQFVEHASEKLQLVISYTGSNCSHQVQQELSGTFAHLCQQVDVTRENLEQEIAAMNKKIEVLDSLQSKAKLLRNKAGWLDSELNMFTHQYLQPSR
# UniProt O60318: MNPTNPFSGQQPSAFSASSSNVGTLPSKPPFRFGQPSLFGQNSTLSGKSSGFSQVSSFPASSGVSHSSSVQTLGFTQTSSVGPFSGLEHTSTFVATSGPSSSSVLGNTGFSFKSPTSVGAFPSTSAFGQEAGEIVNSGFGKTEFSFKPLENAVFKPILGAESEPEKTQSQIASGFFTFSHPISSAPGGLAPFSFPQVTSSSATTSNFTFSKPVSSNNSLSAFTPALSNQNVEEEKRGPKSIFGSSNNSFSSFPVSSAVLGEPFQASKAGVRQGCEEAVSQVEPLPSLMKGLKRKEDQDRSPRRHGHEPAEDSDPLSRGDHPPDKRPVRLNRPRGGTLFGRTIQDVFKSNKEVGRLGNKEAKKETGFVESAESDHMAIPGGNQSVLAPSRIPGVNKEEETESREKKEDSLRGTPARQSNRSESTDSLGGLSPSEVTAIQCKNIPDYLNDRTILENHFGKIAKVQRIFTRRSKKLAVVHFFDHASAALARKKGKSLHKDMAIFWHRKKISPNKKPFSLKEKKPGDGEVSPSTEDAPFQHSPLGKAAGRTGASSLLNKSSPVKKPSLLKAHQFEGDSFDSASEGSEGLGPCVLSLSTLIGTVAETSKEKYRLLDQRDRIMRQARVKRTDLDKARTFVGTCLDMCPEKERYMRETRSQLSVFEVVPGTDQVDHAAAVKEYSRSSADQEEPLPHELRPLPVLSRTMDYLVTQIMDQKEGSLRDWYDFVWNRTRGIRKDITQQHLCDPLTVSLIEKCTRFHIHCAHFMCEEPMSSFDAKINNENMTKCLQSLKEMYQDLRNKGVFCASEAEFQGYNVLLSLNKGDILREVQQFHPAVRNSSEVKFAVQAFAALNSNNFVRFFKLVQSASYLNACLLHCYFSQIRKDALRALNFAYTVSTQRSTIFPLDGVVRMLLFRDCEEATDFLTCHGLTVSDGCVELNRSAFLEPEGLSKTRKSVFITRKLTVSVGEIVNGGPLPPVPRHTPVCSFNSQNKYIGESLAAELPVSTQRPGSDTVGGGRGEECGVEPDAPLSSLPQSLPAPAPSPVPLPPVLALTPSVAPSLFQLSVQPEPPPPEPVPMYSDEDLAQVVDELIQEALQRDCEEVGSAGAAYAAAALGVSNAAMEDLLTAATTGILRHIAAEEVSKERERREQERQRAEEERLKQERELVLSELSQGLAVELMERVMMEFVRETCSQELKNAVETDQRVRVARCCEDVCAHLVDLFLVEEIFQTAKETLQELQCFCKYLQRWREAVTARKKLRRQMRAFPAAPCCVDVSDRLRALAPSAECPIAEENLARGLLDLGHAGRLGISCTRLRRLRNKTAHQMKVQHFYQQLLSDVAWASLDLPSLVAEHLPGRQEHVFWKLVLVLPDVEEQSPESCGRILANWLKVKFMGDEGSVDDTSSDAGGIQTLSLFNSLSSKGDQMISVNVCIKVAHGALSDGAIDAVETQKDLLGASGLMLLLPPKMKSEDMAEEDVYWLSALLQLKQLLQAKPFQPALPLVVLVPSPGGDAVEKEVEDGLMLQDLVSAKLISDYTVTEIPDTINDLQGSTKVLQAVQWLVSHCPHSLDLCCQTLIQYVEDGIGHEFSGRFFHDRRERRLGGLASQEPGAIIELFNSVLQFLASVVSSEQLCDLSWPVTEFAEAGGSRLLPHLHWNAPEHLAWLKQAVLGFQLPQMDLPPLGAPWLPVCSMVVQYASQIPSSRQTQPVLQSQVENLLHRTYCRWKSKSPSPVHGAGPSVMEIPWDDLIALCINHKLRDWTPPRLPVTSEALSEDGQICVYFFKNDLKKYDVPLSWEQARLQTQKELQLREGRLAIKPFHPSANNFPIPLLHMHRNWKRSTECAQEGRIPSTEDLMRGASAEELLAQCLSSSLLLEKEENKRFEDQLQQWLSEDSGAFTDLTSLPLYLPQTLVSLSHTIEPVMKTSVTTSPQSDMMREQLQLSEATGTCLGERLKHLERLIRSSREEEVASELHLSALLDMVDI
# UniProt Q9Y316: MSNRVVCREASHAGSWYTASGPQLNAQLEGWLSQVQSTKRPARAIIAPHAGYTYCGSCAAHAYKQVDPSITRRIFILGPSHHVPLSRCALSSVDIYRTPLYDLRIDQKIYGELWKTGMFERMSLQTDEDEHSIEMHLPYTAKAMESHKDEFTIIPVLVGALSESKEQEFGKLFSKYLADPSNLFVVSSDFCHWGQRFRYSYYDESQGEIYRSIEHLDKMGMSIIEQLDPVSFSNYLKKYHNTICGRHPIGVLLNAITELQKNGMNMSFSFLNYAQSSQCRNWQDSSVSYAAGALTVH
# This is one part of the list.
# Compound: CC1Cc2ccccc2N1C(=O)C1CCCN(C1)C(=O)CCl (mixture of isomers) [TRIM25 ligand 11 (diastereomer mixture)]
# Experiment: probe-labelled cysteine peptide fold change vs DMSO (competition) (log2 fold change); higher = less target engagement (more negative = stronger competition)
# Conditions: THP-1, incubation time: 4 h
# 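Note: competitive chemoproteomic profiling in live THP-1 cells with an iodoacetamide desthiobiotin (IA-DTB) probe, comparing probe-labelled peptide intensities in compound-treated cells against DMSO-treated controls.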
Target,probe-labelled cysteine peptide fold change (10 µM),probe-labelled cysteine peptide fold change (50 µM)
METTL7B_Q6UX53_79+92_VALLELGCGTGANFQFYPPGCR (UniProt Q6UX53),-0.0513,-0.314
METTL18_O95568_196_VLDLGCGSGLLGITAFK (UniProt O95568),0.0383,-0.0127
MCCC1_Q96RQ3_332_HNFCFMEMNTR (UniProt Q96RQ3),0.179,-0.117
MCM4_P33991_328_IAEPSVCGR (UniProt P33991),-0.0359,0.124
MEPCE_Q7L2J0_522_SCFPASLTASR (UniProt Q7L2J0),-0.0818,-0.208
MEFV_O15553_395_QVQLLFCEDHDEPICLICSLSQEHQGHR (UniProt O15553),-0.11,0.0572
METTL13_Q8N6R0_652_IEGEVNEILFCQLHPEQK (UniProt Q8N6R0),-0.0514,0.0839
MED1_Q15648_135_VAHHGENPVSCPELVQQLR (UniProt Q15648),-0.00655,-0.0663
MFN2_O95140_132_VLPSGIGHTTNCFLR (UniProt O95140),-0.0408,-0.269
MDC1_Q14676_26_CNVEPVGR (UniProt Q14676),0.0176,-0.174
MCM3AP_O60318_1240_ETLQELQCFCK (UniProt O60318),0.398,0.321
MCM3AP_O60318_1864_GASAEELLAQCLSSSLLLEK (UniProt O60318),-0.196,-0.0605
MEMO1_Q9Y316_58_AIIAPHAGYTYCGSCAAHAYK (UniProt Q9Y316),0.124,0.0348
MCM6_Q14566_161_THPVHPELVSGTFLCLDCQTVIR (UniProt Q14566),0.203,0.298

# Looked up above:
# MED1_Q15648_135_VAHHGENPVSCPELVQQLR (UniProt Q15648) – probe-labelled cysteine peptide fold change (50 µM): -0.0663
# MFN2_O95140_132_VLPSGIGHTTNCFLR (UniProt O95140) – probe-labelled cysteine peptide fold change (50 µM): -0.269
